Data taken from paper PMC11909255.
No constants are given. Whether binding was seen depends on the method and setting. Binding seen in cells or lysates may run through a third protein. Some entries that bind do so weakly or less than the wild type.

The chains behind the UniProt entries cited, without tags or fusion partners.
UniProt Q99MQ3: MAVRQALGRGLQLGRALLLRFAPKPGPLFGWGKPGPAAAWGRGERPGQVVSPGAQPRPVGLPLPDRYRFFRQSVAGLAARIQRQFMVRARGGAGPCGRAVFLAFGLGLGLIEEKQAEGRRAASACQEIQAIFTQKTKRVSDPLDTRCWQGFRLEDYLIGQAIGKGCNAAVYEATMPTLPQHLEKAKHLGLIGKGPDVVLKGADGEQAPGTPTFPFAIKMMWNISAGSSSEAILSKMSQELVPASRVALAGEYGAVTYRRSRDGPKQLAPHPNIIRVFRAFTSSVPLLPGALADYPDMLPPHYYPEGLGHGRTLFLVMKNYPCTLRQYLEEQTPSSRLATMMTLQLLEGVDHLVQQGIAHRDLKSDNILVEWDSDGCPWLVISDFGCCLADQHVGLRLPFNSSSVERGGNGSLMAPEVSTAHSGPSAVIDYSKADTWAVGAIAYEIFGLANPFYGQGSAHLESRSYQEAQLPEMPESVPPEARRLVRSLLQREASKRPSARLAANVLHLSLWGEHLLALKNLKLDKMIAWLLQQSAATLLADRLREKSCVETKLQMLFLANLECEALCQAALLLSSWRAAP
UniProt P52480: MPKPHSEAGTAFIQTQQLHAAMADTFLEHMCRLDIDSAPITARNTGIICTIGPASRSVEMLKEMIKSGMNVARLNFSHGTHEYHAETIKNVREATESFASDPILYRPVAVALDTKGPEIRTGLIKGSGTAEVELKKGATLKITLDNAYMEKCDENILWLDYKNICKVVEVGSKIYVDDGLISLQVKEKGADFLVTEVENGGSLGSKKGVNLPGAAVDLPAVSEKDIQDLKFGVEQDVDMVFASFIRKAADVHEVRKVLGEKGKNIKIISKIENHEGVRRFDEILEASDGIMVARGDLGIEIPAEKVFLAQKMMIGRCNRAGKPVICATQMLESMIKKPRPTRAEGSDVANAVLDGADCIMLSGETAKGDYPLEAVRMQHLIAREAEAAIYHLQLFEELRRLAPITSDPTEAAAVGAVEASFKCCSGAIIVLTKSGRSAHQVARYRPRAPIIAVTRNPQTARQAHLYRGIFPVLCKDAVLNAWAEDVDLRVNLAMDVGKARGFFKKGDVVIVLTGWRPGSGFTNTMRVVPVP

Target: PTEN-induced putative kinase 1 (PINK1) (mouse (endogenous in murine chondrocytes)) (UniProt Q99MQ3)
Experiment: co-IP; endogenous proteins in chondrocyte lysate; 1 µg purified antibody overnight at 4 °C, Protein A-agarose, six washes with 1X IP buffer, Western blot; cells wild-type, Pink1 knockout or PINK1-overexpressing; which protein was precipitated is not told

## Pyruvate kinase M2 (PKM2) (from UniProt P52480 1-531) (enzyme)
  binding: binds
